PubChem BioAssay AID493246 – Drosophila RNAi Screening Center – 2011
Assay: 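Identify essential fly genes by loss of cell viability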 (primary screen). System: Drosophila Kc and S2R+ cells. Reagents: long dsRNA against Drosophila genes. Read-out: 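Cell number per well after knock-down, printed as raw plate values; calls were based on per-plate z-scores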. Reading the numbers: Kc cell number and S2R+ cell number: higher = more cells remaining. Call rule: 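Counted as a hit if cell number falls by a z-score of at least 3 within its plate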.
The screen tested about 21,000 reagents; this is an unselected part of those that have a named target and a result. Of all reagents, 429 (2%) got an active call. 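Values are raw and not normalised between plates; calls rest on per-plate z-scores that were not deposited.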 Entries without a mark were called inactive. Reagents against one gene are numbered here. A plus sign joins genes that one reagent is predicted to hit. The record does not give: the amount of reagent, the time to read-out.

no.	target gene	reagent	Kc cell number, rep 1	Kc cell number, rep 2	S2R+ cell number, rep 1	S2R+ cell number, rep 2
1	Atg3 (Autophagy-related 3)	1	1.57e6	1.71e6	1.13e6	1.24e6
2	Dtg (Dpp target gene)	1	1.54e6	1.62e6	1.25e6	1.34e6
3	CG17078	1	1.61e6	1.59e6	1.17e6	1.54e6
4	Kpc1 (Kip1 ubiquitination-promoting complex subunit 1)	1	1.87e6	2.01e6	1.47e6	1.58e6
5	CG13154	1	1.56e6	1.70e6	1.20e6	1.35e6
6	fs(1)N (female sterile (1) Nasrat)	1	1.44e6	1.42e6	1.03e6	1.16e6
7	CG14929 + CG4970 + CG14930	1	1.68e6	1.73e6	1.35e6	1.51e6
8	Nrd1 (Nardilysin)	1	5.46e5		8.21e5	
9	Ilp8 (Insulin-like peptide 8)	1	1.60e6	1.90e6	1.36e6	1.50e6
10	CG31661	1	1.78e6	1.79e6	1.13e6	1.27e6
11	fred (friend of echinoid)	1	1.70e6	1.56e6	1.24e6	1.64e6
12	fred (friend of echinoid)	2	1.49e6	1.54e6	1.07e6	1.20e6
13	fred (friend of echinoid)	3	1.63e6	1.58e6	1.18e6	1.34e6
14	fred (friend of echinoid)	4	1.69e6	1.43e6	1.18e6	1.35e6
15	CG3502 + CG9863	1	1.54e6	1.63e6	1.23e6	1.35e6
16	Mst87F (Male-specific RNA 87F)	1	1.24e6	1.28e6	1.17e6	1.30e6
17	CG32582 (retired record)	1	1.34e6	1.65e6	1.05e6	1.21e6
18	CG17931 + CG42446	1	1.22e6	1.28e6	1.16e6	1.29e6
19	RhoGAP102A (Rho GTPase activating protein at 102A)	1	1.27e6	1.49e6	1.06e6	1.10e6
20	RhoGAP102A (Rho GTPase activating protein at 102A)	2	1.63e6	1.73e6	1.08e6	1.10e6
21	Poc1 (Proteome of centrioles 1)	1	1.29e6	1.32e6	1.35e6	9.92e5
22	bcd (bicoid)	1	1.56e6	1.61e6	1.30e6	1.40e6
23	CG9503	1	1.68e6	1.71e6	1.17e6	1.27e6
24	Alk (Anaplastic lymphoma kinase)	1	1.63e6	1.61e6	1.22e6	1.28e6
25	Ehbp1 (Eps15 homology domain containing protein-binding protein 1)	1	1.44e6	1.40e6	1.23e6	1.20e6
26	Irbp (Inverted repeat-binding protein)	1	1.47e6	1.50e6	1.29e6	1.40e6
27	stet (stem cell tumor)	1	1.39e6	1.30e6	9.86e5	1.16e6
28	stet (stem cell tumor)	2	1.50e6	1.46e6	8.46e5	1.08e6
29	TwdlE (TweedleE)	1	1.50e6	1.58e6	1.20e6	1.37e6
30	Tsp66E (Tetraspanin 66E)	1	1.29e6	1.34e6	1.19e6	1.20e6
31	CG31975 + ovm	1	1.50e6	1.55e6	1.00e6	1.20e6
32	CG12682	1	1.55e6	1.52e6	1.14e6	1.30e6
33	Kyat (Kynurenine aminotransferase)	1	1.62e6	1.67e6	1.26e6	1.40e6
34	CG10898	1	1.50e6	1.54e6	1.30e6	1.31e6
35	GstO2 (Glutathione S transferase O2)	1	1.27e6	1.37e6	1.16e6	1.06e6
36	CG1136	1	1.37e6	1.41e6	1.22e6	1.16e6
37	Naam (Nicotinamide amidase)	1	1.36e6	1.46e6	1.01e6	9.90e5
38	CG5335	1	1.37e6	1.47e6	1.23e6	1.26e6
39	Marc (Mitochondrial amidoxime reducing component)	1	1.75e6	1.74e6	1.38e6	1.57e6
40	CG8245	1	1.63e6	1.69e6	1.24e6	1.27e6
41	nAChRbeta2 (nicotinic Acetylcholine Receptor beta2)	1	1.71e6	1.62e6	1.29e6	1.32e6
42	RpLP1 (Ribosomal protein LP1)	1	1.64e6 (active)	1.59e6	7.26e5	8.12e5
43	CG7402	1	1.48e6	1.67e6	1.25e6	1.36e6
44	Ass + CG31286	1	1.42e6	1.55e6	1.23e6	1.26e6
45	Fpgs1 (Folylpolyglutamate synthase 1)	1	1.56e6	1.52e6	1.07e6	1.17e6
46	CG30339	1	1.45e6	1.48e6	9.26e5	1.07e6
47	CG33267	1	1.36e6	1.51e6	1.09e6	1.20e6
48	CG8500	1	1.63e6	1.70e6	1.17e6	1.22e6
49	Dyb (Dystrobrevin)	1	1.50e6	1.78e6	1.06e6	1.22e6
50	CG31789	1	1.39e6	1.45e6	9.10e5	1.10e6
51	Nup62 (Nucleoporin 62kD)	1	1.29e6	1.37e6	1.14e6	1.14e6
52	Hcs (Holocarboxylase synthetase)	1	1.43e6	1.58e6	1.10e6	1.23e6
53	Hcs (Holocarboxylase synthetase)	2	1.45e6	1.56e6	1.25e6	1.33e6
54	CG2127	1	1.48e6	1.59e6	1.31e6	1.46e6
55	Pp1-Y1 (Protein phosphatase 1, Y-linked 1)	1	1.38e6	1.65e6	1.19e6	1.29e6
56	CG5608	1	1.74e6	1.82e6	1.28e6	1.36e6
57	CG15296	1	1.51e6	1.51e6	1.02e6	1.18e6
58	CG15601	1	1.43e6	1.47e6	1.06e6	1.09e6
59	CG13707	1	1.45e6	1.32e6	1.18e6	1.15e6
60	Roe1	1	1.45e6	1.48e6	1.10e6	1.10e6
61	CG5098	1	1.33e6	1.38e6	1.13e6	1.17e6
62	CG6293	1	1.56e6	1.58e6	1.34e6	1.42e6
63	CG11788	1	1.60e6	1.66e6	1.22e6	1.40e6
64	CG18273	1	1.54e6	1.55e6	1.00e6	1.12e6
65	CG18273	2	5.48e5		8.37e5	
66	ACXE (Adenylyl cyclase X E)	1	1.52e6	1.55e6	1.31e6	1.41e6
67	RanBPM (Ran-binding protein M)	1	1.35e6	1.44e6	1.06e6	1.04e6
68	CG7332	1	1.60e6	1.54e6	1.09e6	1.27e6
69	Ugt304A1 (UDP-glycosyltransferase family 304 member A1)	1	1.62e6	1.56e6	1.34e6	1.41e6
70	frm (farmer)	1	1.47e6	1.55e6	1.40e6	1.28e6
71	CG8665	1	1.70e6	1.85e6	1.56e6	5.22e5
72	CG14362	1	1.21e6	1.24e6	1.17e6	1.29e6
73	Ggt-1 (gamma-glutamyl transpeptidase)	1	1.53e6	1.55e6	1.04e6	1.21e6
74	CG12985	1	1.49e6	1.48e6	1.06e6	1.15e6
75	pinta	1	1.56e6	1.62e6	1.20e6	1.23e6
